PubChem BioAssay AID1259405 | NCATS, 2018
Here is an unselected part of about 50,000 reagents tested. In the full data, about 4,000 (8%) were called active. 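Mouse siRNA library applied to hamster cells; one well for each siRNA.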 A number with no mark means an inactive call. Reagents against one gene are numbered here.

Screen: 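Knock-downs that lift recombinant protein yield in hamster ovary cells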 (primary screen)
Cell system: Chinese hamster CHO-K1 ovary cells with stable secreted eGFP expression
Reagents: single siRNA against mouse genes, 0.8 pmol siRNA per well (2 µl of 400 nM stock)
Timing: 3 days
Measurement: 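Percent of the per-plate non-targeting control median for intracellular GFP per well by laser scanning cytometry and for cell viability by ATP luminescence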
Scale: GFP, % of control: higher = more GFP per well, higher productivity; viability (ATP), % of control: higher = more viable cells (more ATP)
Call rule: 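a knock-down is called active if GFP reaches 120% or more of non-targeting control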

| target | siRNA no. | GFP, % of control | viability (ATP), % of control |
| --- | --- | --- | --- |
| Slc39a7 | 1 | 74.5 | 56 |
| Slc39a7 | 2 | 86.6 | 48.1 |
| Slc39a7 | 3 | 98 | 91.5 |
| Or4c105 (olfactory receptor family 4 subfamily C member 105) | 1 | 103 | 62.4 |
| Or4c105 (olfactory receptor family 4 subfamily C member 105) | 2 | 66 | 76.8 |
| Or4c105 (olfactory receptor family 4 subfamily C member 105) | 3 | 117 | 88.3 |
| Rin2 (Ras and Rab interactor 2) | 1 | 104 | 87.6 |
| Rin2 (Ras and Rab interactor 2) | 2 | 51.6 | 71 |
| Rin2 (Ras and Rab interactor 2) | 3 | 68.5 | 70.2 |
| Ptprb (protein tyrosine phosphatase receptor type B) | 1 | 120 (active) | 119 |
| Ptprb (protein tyrosine phosphatase receptor type B) | 2 | 70.2 | 55.9 |
| Bms1 (BMS1, ribosome biogenesis factor) | 1 | 47.4 | 54.2 |
| Bms1 (BMS1, ribosome biogenesis factor) | 2 | 68.6 | 73.7 |
| Bms1 (BMS1, ribosome biogenesis factor) | 3 | 90.7 | 125 |
| Snu13 (SNU13 homolog, small nuclear ribonucleoprotein (U4/U6.U5)) | 1 | 45.5 | 73.1 |
| Snu13 (SNU13 homolog, small nuclear ribonucleoprotein (U4/U6.U5)) | 2 | 74.8 | 67.1 |
| Snu13 (SNU13 homolog, small nuclear ribonucleoprotein (U4/U6.U5)) | 3 | 90.2 | 110 |
| St8sia5 (ST8 alpha-N-acetyl-neuraminide alpha-2,8-sialyltransferase 5) | 1 | 105 | 79.5 |
| St8sia5 (ST8 alpha-N-acetyl-neuraminide alpha-2,8-sialyltransferase 5) | 2 | 87.3 | 41.4 |
| St8sia5 (ST8 alpha-N-acetyl-neuraminide alpha-2,8-sialyltransferase 5) | 3 | 97.4 | 86.9 |
| Hyi (hydroxypyruvate isomerase (putative)) | 1 | 77.5 | 75.2 |
| Hyi (hydroxypyruvate isomerase (putative)) | 2 | 92.1 | 84 |
| Hyi (hydroxypyruvate isomerase (putative)) | 3 | 112 | 131 |

Reformatted: results already given
Bms1 (BMS1, ribosome biogenesis factor) #1
- GFP, % of control: 47.4
- viability (ATP), % of control: 54.2

Bms1 (BMS1, ribosome biogenesis factor) #2
- GFP, % of control: 68.6
- viability (ATP), % of control: 73.7

Bms1 (BMS1, ribosome biogenesis factor) #3
- GFP, % of control: 90.7
- viability (ATP), % of control: 125

Snu13 (SNU13 homolog, small nuclear ribonucleoprotein (U4/U6.U5)) #1
- GFP, % of control: 45.5
- viability (ATP), % of control: 73.1

Snu13 (SNU13 homolog, small nuclear ribonucleoprotein (U4/U6.U5)) #2
- GFP, % of control: 74.8
- viability (ATP), % of control: 67.1

Snu13 (SNU13 homolog, small nuclear ribonucleoprotein (U4/U6.U5)) #3
- GFP, % of control: 90.2
- viability (ATP), % of control: 110

Next results:
| target | siRNA no. | GFP, % of control | viability (ATP), % of control |
| --- | --- | --- | --- |
| Nr1h2 (nuclear receptor subfamily 1, group H, member 2) | 1 | 114 | 101 |
| Nr1h2 (nuclear receptor subfamily 1, group H, member 2) | 2 | 92.1 | 60.5 |
| Mon1a (MON1 homolog A, secretory traffciking associated) | 1 | 39.9 | 18.9 |
| Mon1a (MON1 homolog A, secretory traffciking associated) | 2 | 49.1 | 63 |
| Mon1a (MON1 homolog A, secretory traffciking associated) | 3 | 47.9 | 72 |
| Etfa (electron transferring flavoprotein, alpha polypeptide) | 1 | 74.1 | 71.4 |
| Etfa (electron transferring flavoprotein, alpha polypeptide) | 2 | 61.2 | 68.2 |
| Tmem106b (transmembrane protein 106B) | 1 | 85.7 | 83 |
| Tmem106b (transmembrane protein 106B) | 2 | 104 | 116 |
| Tmem106b (transmembrane protein 106B) | 3 | 37.1 | 63.1 |
| Lhx6 (LIM homeobox protein 6) | 1 | 72 | 75 |
| Lhx6 (LIM homeobox protein 6) | 2 | 93.8 | 108 |
| Lhx6 (LIM homeobox protein 6) | 3 | 66.1 | 66.4 |
| Vmn1r47 (vomeronasal 1 receptor 47) | 1 | 63.7 | 61.8 |
| Vmn1r47 (vomeronasal 1 receptor 47) | 2 | 67.4 | 75.7 |
| Vmn1r47 (vomeronasal 1 receptor 47) | 3 | 58.9 | 74.2 |
| Clca4a (chloride channel accessory 4A) | 1 | 152 (active) | 97.2 |
| Clca4a (chloride channel accessory 4A) | 2 | 60 | 79.3 |
| Clca4a (chloride channel accessory 4A) | 3 | 80.7 | 95.4 |
| Dnajc6 (DnaJ heat shock protein family (Hsp40) member C6) | 1 | 163 (active) | 77.1 |
| Dnajc6 (DnaJ heat shock protein family (Hsp40) member C6) | 2 | 85.8 | 69.8 |
| Dnajc6 (DnaJ heat shock protein family (Hsp40) member C6) | 3 | 106 | 94.2 |
| Setd1a (SET domain containing 1A) | 1 | 47.7 | 23.9 |
| Setd1a (SET domain containing 1A) | 2 | 111 | 109 |
| Setd1a (SET domain containing 1A) | 3 | 32.6 | 21.6 |
| Smim19 (small integral membrane protein 19) | 1 | 41.4 | 68.2 |
| Smim19 (small integral membrane protein 19) | 2 | 80.5 | 86.9 |
| Smim19 (small integral membrane protein 19) | 3 | 88.5 | 86.2 |
| Gpbar1 (G protein-coupled bile acid receptor 1) | 1 | 101 | 71.4 |
| Gpbar1 (G protein-coupled bile acid receptor 1) | 2 | 102 | 73.1 |
| Gpbar1 (G protein-coupled bile acid receptor 1) | 3 | 126 (active) | 90.8 |
| Zfp652 (zinc finger protein 652) | 1 | 89 | 62.5 |
| Zfp652 (zinc finger protein 652) | 2 | 32.5 | 45.3 |
| Zfp652 (zinc finger protein 652) | 3 | 82.7 | 93.1 |
